Structures were worked out from names or drawings and are uncertain.
Tests used:
[1] = test system: Recombinant human c-Cbl (aa 47-435); assay: c-Cbl Biochemical Assay (TR-FRET); conditions: ratio from the Cbl-b and c-Cbl TR-FRET biochemical assays
Experimental: c-Cbl Biochemical Assay (TR-FRET)
Recombinant human c-Cbl (aa 47-435) was expressed in E coli, purified and biotinylated in vitro. The protein was diluted to 12 nM in freshly prepared assay buffer consisting of 50 mM HEPES, pH 7.0, 100 mM NaCl, 5 mM MgCl2, 0.01% Triton-X 100, 0.01% BSA and 1 mM DTT. Recombinant human Src (aa 254-536)-GSSGSS-Zap-70 (aa 281-297) fusion protein was expressed in E coli and purified. Protein was diluted in assay buffer to 5-20 nM and ATP was added to 1 mM. Recombinant human UBE2D2(C85K) was expressed in E coli, purified and ubiquitinated and Bodipy labelled in vitro. Protein was diluted to 200 nM in assay buffer without MgCl2 (or Cisbio PPI buffer). Streptavidin-Terbium was added to 2 nM and EDTA to 10 mM, to provide a binding assay mix. Compounds were dissolved in DMSO and diluted to prepare a ten-point half log dilution series. 100 nl of each compound concentration was dispensed in duplicate in a 384 well black assay plate using acoustic dispensing. […] The enzyme reaction was terminated and the binding reaction was initiated by adding 10p of binding assay mix to all wells and incubating the plate at RT for 60 min prior to assay read. […] The HTRF assay signal was measured at 520 nm on an Envision plate reader, with reference signal at 485 or 620 nm. […]

Chains of the proteins cited; added tags and fusions are not shown. Residues count along the entry.
UniProt Q13191, 36-427 limits assumed: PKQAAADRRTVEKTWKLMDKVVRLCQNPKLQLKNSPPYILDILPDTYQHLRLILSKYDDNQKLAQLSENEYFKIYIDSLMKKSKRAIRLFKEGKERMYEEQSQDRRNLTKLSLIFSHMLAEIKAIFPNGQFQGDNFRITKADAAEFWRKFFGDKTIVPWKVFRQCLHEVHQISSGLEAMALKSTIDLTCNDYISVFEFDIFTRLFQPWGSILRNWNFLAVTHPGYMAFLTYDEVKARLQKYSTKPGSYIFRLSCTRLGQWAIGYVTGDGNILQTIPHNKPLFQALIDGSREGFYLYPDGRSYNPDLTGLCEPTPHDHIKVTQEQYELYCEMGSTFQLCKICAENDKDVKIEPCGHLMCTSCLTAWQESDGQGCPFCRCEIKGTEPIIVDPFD

[2] = biological target: Recombinant human Cbl-b (aa 36-427) (Homo sapiens, UniProt Q13191); assay: Cbl-b Biochemical Assay (TR-FRET); conditions: read-out: TR-FRET Cbl-b IC50; 6 nM Cbl-b, 1-2.5 nM Src-Zap70, 0.5 mM ATP; HTRF signal at 520 nm
Experimental: Cbl-b Biochemical Assay (TR-FRET)
Recombinant human Cbl-b (aa 36-427) was expressed in E coli, purified and biotinylated in vitro. The protein was diluted to 12 nM in freshly prepared assay buffer consisting of 50 mM HEPES, pH 7.0, 100 mM NaCl, 5 mM MgCl2, 0.01% Triton-X 100, 0.01% BSA and 1 mM DTT. Recombinant human Src (aa 254-536)-GSSGSS-Zap-70 (aa 281-297) fusion protein was expressed in E coli and purified. Protein was diluted in assay buffer to 2-5 nM and supplemented with ATP to 1 mM. Fluorescein-BODIPY labeled UBED2D(C85K)-Ub was prepared by conjugating ubiquitin (Ub) labeled at its N-terminus with Fluorescein-BODIPY maleimide (ThermoFisher Catalog no B10250) to E coli expressed and purified UBED2D(C85K) [see Dou et al Nature Structural and Molecular Biology 8: 982-987, 2013]. Recombinant human UBE2D2(C85K) was expressed in E coli, purified and ubiquitinated and Bodipy labelled in vitro. Protein was diluted to 200 nM in assay buffer without MgCl2 (or Cisbio PPI buffer). Streptavidin-Terbium was added to 2 nM and EDTA to 10 mM, to provide a binding assay mix. […] The enzyme reaction was terminated and the binding reaction was initiated by adding 10p of binding assay mix to all wells and incubating the plate at RT for 60 min prior to assay read. […] The HTRF assay signal was measured at 520 nm on an Envision plate reader, with reference signal at 485 or 620 nm. […]

Work on `CN(C)C(=O)CNCc1cc(C(F)(F)F)c2oc(-c3cccc([C@]4(c5nncn5C)C[C@@H](C)C4)c3)nc2c1` yielded a Cbl-b/c-Cbl Selectivity [1] of 9 and an IC50 [2] of 200 to 5000 nM.
